Data from publication PMC5461506, “Strength of Neisseria meningitidis binding to endothelial cells requires highly-ordered CD147/β2-adrenoceptor clusters assembled by alpha-actinin-4” (Nature Communications, 2017).
Results are given in words; binding and its absence hold for the method and conditions named. Binding seen in cells or lysates may run through a third protein. Here binding means that the protein was enriched with, or labelled near, the bait; the list need not be complete.

The chains behind the UniProt entries cited, without tags or fusion partners. Where a name states a change or a piece, a line headed by the entry shows the natural chain unless it says otherwise.
UniProt P35613: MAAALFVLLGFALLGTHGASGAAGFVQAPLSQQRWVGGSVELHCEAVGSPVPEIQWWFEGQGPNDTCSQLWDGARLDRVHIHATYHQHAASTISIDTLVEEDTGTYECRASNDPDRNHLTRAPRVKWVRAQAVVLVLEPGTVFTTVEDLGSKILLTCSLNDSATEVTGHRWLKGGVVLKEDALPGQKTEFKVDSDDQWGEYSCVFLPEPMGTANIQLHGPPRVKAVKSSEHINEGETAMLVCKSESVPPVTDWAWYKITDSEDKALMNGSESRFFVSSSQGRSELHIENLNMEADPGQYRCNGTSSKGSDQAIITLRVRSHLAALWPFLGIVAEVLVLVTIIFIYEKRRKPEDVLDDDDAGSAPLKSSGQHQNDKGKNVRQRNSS
UniProt P21333: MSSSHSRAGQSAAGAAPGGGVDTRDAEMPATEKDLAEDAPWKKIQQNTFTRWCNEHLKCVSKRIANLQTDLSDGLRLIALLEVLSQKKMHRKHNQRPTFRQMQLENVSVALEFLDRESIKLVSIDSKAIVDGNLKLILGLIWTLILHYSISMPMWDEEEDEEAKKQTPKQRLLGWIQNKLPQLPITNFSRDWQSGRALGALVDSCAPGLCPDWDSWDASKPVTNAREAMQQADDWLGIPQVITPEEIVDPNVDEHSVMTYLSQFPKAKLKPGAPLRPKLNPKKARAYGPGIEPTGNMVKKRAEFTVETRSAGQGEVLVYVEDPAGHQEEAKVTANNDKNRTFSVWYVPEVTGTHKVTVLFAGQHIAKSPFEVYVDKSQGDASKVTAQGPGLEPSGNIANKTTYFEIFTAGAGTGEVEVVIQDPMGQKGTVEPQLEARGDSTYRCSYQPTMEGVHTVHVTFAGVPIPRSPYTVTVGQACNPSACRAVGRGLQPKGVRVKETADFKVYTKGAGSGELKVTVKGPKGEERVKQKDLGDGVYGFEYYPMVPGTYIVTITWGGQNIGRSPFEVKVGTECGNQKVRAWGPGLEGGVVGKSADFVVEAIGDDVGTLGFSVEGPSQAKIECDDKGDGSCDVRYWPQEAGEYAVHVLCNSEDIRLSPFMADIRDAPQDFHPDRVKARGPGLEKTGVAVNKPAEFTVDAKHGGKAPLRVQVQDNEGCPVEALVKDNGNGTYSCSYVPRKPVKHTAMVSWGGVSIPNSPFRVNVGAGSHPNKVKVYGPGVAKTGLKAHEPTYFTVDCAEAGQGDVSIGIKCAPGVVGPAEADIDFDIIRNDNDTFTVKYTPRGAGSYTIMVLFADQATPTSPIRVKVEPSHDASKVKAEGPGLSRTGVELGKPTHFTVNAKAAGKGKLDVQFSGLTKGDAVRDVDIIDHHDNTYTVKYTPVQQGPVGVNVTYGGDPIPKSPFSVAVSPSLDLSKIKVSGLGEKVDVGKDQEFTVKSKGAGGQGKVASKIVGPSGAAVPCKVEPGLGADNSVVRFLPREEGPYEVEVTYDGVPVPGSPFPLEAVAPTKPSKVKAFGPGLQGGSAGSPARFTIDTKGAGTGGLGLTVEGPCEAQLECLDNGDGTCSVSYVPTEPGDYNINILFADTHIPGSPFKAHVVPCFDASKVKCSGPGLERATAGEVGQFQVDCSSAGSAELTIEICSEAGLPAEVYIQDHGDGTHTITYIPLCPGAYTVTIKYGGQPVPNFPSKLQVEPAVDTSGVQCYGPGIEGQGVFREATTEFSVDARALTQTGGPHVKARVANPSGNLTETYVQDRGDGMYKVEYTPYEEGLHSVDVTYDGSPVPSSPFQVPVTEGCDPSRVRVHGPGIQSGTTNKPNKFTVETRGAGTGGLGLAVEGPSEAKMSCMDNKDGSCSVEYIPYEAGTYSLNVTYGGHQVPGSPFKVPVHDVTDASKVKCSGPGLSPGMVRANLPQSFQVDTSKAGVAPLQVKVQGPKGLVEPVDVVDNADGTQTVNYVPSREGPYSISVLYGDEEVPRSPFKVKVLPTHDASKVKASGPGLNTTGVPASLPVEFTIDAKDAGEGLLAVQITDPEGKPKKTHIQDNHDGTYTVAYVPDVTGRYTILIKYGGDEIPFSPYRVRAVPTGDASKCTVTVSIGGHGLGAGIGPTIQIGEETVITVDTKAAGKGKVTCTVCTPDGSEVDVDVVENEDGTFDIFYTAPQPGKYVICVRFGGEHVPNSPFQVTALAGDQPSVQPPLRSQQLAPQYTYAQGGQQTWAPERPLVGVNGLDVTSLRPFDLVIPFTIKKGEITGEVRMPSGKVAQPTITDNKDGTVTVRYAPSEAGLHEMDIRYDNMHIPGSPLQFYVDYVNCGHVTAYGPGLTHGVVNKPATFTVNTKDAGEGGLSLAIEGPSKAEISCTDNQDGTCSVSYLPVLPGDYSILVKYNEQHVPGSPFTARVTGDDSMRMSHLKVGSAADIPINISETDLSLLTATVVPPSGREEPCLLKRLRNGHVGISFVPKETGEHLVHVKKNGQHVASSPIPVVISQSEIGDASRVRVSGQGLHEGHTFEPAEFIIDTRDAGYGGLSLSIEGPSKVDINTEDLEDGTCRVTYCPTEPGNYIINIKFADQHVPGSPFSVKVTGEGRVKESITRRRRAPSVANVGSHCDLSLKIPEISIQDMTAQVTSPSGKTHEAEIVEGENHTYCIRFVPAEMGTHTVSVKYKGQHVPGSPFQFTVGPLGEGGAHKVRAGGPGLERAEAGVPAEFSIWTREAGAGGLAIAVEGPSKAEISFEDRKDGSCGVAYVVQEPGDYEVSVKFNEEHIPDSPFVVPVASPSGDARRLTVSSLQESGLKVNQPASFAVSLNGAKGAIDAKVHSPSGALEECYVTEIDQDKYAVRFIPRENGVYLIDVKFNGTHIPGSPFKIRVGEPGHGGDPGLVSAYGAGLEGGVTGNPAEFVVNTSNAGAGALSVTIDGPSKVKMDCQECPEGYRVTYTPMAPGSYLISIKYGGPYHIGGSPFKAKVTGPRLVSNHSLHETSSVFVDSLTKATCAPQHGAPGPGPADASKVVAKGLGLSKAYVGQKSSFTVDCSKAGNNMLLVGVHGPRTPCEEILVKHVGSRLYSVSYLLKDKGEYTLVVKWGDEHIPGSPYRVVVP
UniProt P12814: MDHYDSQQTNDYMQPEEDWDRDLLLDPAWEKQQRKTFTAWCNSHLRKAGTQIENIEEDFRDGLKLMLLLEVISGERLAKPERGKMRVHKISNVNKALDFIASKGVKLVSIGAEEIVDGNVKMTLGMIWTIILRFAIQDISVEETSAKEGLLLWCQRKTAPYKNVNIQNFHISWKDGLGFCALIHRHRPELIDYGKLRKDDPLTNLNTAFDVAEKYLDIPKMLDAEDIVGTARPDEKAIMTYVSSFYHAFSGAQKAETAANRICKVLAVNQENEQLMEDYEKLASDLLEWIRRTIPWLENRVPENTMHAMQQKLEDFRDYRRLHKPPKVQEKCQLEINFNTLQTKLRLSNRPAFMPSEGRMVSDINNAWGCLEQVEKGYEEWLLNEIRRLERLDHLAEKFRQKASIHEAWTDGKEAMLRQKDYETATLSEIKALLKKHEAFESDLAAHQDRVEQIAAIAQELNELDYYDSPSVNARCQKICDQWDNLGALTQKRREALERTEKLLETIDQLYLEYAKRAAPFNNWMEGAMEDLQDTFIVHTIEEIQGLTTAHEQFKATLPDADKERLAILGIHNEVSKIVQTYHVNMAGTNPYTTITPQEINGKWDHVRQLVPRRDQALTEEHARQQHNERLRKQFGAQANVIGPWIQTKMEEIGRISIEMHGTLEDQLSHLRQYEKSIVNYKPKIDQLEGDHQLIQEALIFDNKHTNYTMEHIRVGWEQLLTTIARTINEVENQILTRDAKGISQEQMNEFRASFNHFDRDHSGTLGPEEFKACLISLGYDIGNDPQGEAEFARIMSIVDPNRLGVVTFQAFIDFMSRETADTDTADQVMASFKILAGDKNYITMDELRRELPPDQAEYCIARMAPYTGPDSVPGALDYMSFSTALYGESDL
UniProt O43707: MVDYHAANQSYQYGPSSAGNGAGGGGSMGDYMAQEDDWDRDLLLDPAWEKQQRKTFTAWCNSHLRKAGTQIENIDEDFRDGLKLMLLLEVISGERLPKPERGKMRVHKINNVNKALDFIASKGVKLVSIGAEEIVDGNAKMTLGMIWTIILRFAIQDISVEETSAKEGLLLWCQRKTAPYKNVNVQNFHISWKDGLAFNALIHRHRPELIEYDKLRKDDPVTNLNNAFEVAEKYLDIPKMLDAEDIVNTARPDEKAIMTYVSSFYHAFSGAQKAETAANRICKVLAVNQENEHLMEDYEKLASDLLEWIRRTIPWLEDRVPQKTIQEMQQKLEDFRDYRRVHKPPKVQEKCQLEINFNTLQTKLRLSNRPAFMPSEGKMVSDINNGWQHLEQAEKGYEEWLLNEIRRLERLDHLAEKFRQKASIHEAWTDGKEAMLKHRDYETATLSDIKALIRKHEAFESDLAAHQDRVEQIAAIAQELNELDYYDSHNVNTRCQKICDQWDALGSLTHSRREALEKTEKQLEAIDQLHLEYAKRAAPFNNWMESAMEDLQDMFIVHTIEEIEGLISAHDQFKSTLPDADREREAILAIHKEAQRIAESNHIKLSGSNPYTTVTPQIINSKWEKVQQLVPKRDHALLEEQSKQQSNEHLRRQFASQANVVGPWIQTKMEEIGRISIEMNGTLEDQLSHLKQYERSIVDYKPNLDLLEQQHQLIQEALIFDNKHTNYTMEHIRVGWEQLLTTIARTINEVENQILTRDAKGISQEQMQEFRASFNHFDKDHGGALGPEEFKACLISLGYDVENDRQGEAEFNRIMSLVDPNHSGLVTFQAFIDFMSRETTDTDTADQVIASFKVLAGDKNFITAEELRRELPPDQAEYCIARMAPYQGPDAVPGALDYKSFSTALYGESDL

Target: CD147 (endogenous, HBMECs) (human (endogenous in HBMEC)) (UniProt P35613)
Test: affinity purification with mass spectrometry; CD147 immunoprecipitated from non-infected and infected HBMEC lysates, SDS-PAGE, in-gel trypsin digestion, nano-LC MALDI-TOF/TOF

binding, binds:
filamin A (endogenous, HBMECs) (from UniProt P21333 1-2647)
filamin B (endogenous, HBMECs) (from UniProt O75369 1-2602)
Actn1 (endogenous, HBMECs) (from UniProt P12814 1-892)
α-actinin-4 (endogenous, HBMECs) (from UniProt O43707 1-911)
